The record followed here is the supplement of paper PMC10849652.

Amino acid sequences for entries named in this document (tags omitted). A change or cut given only in a name is not applied to a line headed by its entry.
UniProt P78330: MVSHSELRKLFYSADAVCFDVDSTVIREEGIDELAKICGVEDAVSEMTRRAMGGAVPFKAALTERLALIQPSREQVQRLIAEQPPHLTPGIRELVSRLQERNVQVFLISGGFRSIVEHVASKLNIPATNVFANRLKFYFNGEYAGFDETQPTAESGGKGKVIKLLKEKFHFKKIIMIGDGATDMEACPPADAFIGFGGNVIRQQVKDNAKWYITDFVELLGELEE
UniProt Q96PZ0: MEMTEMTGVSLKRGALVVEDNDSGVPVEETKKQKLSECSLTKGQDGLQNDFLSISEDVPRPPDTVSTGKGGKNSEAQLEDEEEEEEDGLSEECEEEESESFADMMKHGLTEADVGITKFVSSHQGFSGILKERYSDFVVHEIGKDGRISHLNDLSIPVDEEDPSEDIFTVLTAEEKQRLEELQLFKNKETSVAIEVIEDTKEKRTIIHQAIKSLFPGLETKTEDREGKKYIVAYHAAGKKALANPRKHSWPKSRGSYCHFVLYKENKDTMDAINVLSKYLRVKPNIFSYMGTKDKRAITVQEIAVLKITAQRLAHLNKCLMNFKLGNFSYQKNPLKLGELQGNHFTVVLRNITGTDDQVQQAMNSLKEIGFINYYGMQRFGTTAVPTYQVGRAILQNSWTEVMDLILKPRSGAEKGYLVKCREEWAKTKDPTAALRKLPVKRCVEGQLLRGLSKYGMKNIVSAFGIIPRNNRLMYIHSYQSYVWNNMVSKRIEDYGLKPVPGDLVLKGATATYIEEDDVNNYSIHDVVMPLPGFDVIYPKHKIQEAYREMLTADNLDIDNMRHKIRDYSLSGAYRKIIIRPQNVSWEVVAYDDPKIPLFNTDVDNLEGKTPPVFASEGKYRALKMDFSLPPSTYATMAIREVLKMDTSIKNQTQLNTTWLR
UniProt Q9NXS2: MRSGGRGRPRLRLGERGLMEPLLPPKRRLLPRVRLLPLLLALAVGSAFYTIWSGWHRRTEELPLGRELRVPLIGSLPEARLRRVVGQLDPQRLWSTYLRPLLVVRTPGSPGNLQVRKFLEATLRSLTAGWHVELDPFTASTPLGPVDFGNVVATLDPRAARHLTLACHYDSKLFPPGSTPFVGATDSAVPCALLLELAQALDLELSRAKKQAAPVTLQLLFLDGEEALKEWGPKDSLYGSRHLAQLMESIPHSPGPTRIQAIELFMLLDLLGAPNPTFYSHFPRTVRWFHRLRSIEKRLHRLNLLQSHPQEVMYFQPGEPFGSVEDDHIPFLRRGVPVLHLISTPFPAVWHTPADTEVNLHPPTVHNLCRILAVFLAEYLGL
UniProt Q8TAA3: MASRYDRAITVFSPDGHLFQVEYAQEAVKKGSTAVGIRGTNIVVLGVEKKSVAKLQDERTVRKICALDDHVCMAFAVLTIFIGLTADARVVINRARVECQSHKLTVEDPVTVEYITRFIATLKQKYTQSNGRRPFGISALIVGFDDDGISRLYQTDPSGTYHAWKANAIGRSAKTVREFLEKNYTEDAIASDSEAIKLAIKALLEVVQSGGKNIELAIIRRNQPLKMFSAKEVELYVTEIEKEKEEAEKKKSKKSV
UniProt P09417: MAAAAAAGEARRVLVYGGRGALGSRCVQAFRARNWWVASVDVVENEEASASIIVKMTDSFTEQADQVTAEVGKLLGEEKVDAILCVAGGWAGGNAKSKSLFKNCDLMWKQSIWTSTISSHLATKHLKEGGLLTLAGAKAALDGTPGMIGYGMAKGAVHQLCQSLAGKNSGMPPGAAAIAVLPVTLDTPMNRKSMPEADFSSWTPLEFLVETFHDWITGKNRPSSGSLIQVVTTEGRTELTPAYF
UniProt Q9UL46, whole entry, looked up: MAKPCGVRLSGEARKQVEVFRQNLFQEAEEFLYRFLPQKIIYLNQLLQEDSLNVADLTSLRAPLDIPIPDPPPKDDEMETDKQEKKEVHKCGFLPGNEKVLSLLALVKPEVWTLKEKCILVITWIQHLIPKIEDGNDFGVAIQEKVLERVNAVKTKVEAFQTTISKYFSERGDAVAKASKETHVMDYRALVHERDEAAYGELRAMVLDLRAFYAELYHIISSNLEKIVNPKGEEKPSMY
UniProt O00487, whole entry, looked up: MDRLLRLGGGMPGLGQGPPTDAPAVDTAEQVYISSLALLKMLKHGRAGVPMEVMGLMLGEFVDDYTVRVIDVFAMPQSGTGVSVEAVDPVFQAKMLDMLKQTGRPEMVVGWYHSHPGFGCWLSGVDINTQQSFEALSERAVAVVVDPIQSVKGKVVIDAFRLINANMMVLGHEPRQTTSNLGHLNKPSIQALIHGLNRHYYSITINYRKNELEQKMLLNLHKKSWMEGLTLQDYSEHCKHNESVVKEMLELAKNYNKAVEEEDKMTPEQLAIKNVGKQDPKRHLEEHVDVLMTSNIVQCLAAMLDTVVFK
UniProt Q9H974: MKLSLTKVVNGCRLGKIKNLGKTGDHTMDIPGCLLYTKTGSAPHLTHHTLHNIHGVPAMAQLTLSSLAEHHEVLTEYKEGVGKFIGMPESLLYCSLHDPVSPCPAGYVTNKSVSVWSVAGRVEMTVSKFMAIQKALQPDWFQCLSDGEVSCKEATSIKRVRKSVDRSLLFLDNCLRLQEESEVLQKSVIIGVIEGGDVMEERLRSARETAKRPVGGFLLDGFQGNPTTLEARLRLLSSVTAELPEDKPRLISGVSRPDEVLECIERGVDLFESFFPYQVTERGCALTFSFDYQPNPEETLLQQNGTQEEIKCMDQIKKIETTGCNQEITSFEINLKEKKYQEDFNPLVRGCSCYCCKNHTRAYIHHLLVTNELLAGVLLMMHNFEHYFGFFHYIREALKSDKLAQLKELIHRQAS
UniProt Q3MIT2: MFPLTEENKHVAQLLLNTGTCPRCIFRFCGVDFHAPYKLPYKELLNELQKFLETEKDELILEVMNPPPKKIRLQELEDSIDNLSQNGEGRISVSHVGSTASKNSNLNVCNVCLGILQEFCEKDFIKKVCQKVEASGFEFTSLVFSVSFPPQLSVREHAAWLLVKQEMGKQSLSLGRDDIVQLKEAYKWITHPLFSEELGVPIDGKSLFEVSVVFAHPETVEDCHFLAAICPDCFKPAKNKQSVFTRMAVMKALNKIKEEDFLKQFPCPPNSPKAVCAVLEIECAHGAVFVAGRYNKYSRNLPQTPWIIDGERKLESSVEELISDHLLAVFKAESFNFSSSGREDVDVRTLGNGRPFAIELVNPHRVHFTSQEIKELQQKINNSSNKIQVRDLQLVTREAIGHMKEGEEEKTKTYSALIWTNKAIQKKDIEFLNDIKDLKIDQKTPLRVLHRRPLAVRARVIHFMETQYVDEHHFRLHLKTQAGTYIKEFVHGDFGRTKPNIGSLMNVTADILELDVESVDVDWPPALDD
UniProt Q5JS54: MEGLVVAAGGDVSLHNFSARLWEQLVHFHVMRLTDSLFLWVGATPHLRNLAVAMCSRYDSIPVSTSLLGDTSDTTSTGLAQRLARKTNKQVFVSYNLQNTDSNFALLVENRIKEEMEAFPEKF
UniProt Q9ULZ3, whole entry, looked up: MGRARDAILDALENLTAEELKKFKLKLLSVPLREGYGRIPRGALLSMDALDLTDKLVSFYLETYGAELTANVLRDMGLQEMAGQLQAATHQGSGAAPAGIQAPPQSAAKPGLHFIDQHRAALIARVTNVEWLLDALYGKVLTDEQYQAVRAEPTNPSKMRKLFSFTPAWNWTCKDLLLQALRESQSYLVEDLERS
UniProt O14818: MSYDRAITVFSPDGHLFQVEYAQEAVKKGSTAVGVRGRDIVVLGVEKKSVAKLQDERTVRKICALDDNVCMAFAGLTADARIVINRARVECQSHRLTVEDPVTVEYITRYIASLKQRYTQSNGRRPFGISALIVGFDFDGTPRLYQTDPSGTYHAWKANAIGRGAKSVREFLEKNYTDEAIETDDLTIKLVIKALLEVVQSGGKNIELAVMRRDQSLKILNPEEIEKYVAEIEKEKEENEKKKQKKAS
UniProt Q9BVG9: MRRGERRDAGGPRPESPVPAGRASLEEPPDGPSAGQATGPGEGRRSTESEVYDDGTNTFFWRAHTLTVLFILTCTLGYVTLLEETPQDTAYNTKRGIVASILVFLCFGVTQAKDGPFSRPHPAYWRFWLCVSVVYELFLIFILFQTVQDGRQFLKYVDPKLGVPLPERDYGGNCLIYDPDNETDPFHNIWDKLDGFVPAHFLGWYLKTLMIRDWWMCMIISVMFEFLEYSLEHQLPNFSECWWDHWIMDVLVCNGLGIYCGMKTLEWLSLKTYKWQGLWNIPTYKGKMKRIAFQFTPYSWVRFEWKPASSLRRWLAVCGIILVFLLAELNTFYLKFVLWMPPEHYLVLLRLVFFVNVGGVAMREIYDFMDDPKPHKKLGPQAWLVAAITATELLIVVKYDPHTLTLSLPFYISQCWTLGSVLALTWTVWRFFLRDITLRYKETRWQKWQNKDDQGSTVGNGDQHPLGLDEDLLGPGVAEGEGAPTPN
UniProt Q6ZRP7: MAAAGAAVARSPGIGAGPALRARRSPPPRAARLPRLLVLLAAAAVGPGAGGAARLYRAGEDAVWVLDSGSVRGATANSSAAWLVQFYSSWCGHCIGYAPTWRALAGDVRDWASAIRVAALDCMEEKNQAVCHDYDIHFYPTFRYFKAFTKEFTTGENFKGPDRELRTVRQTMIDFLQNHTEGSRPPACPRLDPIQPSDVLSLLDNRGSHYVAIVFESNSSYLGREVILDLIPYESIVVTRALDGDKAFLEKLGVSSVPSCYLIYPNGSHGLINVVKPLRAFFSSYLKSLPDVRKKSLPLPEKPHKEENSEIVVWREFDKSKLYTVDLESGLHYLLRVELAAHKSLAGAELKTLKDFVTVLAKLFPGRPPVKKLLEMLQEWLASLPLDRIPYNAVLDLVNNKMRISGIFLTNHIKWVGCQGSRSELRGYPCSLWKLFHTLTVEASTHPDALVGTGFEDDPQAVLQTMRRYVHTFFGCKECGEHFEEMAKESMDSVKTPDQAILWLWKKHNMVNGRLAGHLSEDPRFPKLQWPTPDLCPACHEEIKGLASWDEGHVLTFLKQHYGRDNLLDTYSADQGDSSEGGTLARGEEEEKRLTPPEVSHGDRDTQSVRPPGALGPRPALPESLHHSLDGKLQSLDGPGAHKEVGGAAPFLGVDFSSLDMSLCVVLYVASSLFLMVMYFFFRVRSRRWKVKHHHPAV
UniProt Q9BRP8: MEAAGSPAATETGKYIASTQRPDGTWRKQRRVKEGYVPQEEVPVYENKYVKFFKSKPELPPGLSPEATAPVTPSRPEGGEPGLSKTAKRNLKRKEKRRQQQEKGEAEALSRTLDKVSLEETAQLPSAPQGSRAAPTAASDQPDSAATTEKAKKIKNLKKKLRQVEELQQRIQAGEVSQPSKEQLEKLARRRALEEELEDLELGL
UniProt P25786: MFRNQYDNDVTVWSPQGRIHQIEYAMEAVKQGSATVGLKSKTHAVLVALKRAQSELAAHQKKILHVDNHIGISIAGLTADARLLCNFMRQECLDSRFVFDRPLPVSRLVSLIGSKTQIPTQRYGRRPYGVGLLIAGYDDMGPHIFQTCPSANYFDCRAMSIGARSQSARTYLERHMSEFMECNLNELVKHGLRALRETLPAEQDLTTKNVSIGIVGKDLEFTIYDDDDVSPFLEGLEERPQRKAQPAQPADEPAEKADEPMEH
UniProt P49023, whole entry, looked up: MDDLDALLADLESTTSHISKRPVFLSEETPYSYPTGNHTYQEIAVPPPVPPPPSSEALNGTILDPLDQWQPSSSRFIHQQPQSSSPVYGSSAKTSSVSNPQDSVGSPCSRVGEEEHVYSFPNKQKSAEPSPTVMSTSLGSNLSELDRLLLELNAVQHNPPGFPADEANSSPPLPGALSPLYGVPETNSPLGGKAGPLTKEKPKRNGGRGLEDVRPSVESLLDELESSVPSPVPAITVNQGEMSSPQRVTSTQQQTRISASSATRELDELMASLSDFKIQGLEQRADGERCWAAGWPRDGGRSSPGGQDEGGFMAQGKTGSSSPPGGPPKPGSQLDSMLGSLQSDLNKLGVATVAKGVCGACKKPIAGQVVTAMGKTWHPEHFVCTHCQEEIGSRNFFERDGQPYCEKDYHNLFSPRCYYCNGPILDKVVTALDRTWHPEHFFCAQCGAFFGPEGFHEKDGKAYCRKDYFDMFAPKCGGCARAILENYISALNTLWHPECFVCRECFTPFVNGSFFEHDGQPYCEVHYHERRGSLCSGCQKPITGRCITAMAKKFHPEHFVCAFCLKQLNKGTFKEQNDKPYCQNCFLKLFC
UniProt P07602: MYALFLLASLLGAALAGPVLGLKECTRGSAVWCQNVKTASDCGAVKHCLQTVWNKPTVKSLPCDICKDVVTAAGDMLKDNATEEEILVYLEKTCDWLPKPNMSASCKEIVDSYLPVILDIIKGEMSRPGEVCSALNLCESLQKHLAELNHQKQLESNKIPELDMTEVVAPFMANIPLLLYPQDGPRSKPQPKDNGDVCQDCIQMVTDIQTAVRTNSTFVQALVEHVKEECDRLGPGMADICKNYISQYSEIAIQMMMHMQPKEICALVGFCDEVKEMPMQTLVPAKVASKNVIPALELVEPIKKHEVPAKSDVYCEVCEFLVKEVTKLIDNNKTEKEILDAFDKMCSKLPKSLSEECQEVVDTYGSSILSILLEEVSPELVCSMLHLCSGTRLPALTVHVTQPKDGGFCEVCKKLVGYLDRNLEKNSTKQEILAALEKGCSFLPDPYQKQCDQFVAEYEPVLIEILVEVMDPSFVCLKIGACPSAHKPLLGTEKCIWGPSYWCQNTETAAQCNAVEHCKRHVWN

The other results are listed elsewhere or left out.

Compound in the assay: C#Cc1cccc(Nc2ncnc3cc(OCCOC)c(OCCOC)cc23)c1 [erlotinib]
Kind of assay: log2 fold change, soluble protein after heating vs DMSO (PISA); higher = thermal stabilisation; K562 cells, 10 uM, 30 min; active = over 0.2 and 3.5 SD of the protein, either way, in both replicates (recomputed). The essentials:
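Soluble protein was quantified by TMTpro 16plex LC-MS/MS after channel sums were equalised. It was obtained as the supernatant after 21,000xg for 90 min from pooled aliquots of K562 cells (2×10^6 cells/mL, 10 μM compound, 30 min) heated for 3 min across 48°C-58°C and extracted in PBS with 0.5% NP-40 at 4°C. Thermal stability values are relative to control samples and come from duplicates. They are given as log2 fold changes.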
With PXMP2 (UniProt Q9NR77), the log2 fold change was inactive: 0.023.

On to PSPH (UniProt P78330), for which the log2 fold change is inactive: 0.014.

On to QTRT1 (UniProt Q9BXR0), for which the log2 fold change was inactive: 0.029.

Regarding PUS7 isoform 2 (UniProt Q96PZ0), the log2 fold change is inactive: -0.01.

Regarding PZP (UniProt P20742), the log2 fold change is inactive: -0.178.

With QPCTL (UniProt Q9NXS2), the log2 fold change is inactive: -0.043.

As to PTMS (UniProt P20962), the log2 fold change is inactive: 0.035.

As for PWP2 (UniProt Q15269), the log2 fold change is inactive: -0.065.

Turning to PSMA8 (UniProt Q8TAA3), the log2 fold change was inactive: -0.084.

Take QDPR (UniProt P09417): the log2 fold change is inactive: 0.019.

On to PSME1 (UniProt Q06323), for which the log2 fold change was inactive: -0.012.

On to PSME2 (UniProt Q9UL46), for which the log2 fold change is inactive: 0.03.

PRTFDC1 (UniProt Q9NRG1): the log2 fold change was inactive: 0.022.

As for PSMB1 (UniProt P20618), the log2 fold change was inactive: -0.131.

For the target PTPRA (UniProt P18433), the log2 fold change was inactive: -0.036.

Consider PSMD4 (UniProt P55036), for which the log2 fold change is inactive: -0.065.

Consider PUS7L (UniProt Q9H0K6), for which the log2 fold change was inactive: -0.01.

For PSMD14 (UniProt O00487), the log2 fold change is inactive: -0.073.

Consider PUM2 (UniProt Q8TB72), for which the log2 fold change was inactive: -0.034.

On to PTPRC (UniProt P08575), for which the log2 fold change is inactive: -0.012.

In the case of QTRT2 isoform 4 (UniProt Q9H974), the log2 fold change was inactive: 0.014.

As for PUS10 (UniProt Q3MIT2), the log2 fold change was inactive: 0.028.

For PSMG4 isoform 2 (UniProt Q5JS54), the log2 fold change is inactive: 0.094.

Regarding PYCARD (UniProt Q9ULZ3), the log2 fold change was inactive: 0.054.

Turning to PSMA7 (UniProt O14818), the log2 fold change was inactive: -0.102.

Consider PTDSS2 (UniProt Q9BVG9), for which the log2 fold change is inactive: -0.012.

As to QSOX2 (UniProt Q6ZRP7), the log2 fold change is inactive: -0.01.

Regarding PTK7 isoform 6 (UniProt Q13308), the log2 fold change was inactive: -0.007.

Take PYM1 (UniProt Q9BRP8): the log2 fold change was inactive: 0.018.

Turning to PSMA1 isoform 2 (UniProt P25786), the log2 fold change was inactive: -0.057.

For PSMA5 (UniProt P28066), the log2 fold change is inactive: -0.057.

On to PTCD3 (UniProt Q96EY7), for which the log2 fold change was inactive: -0.061.

In the case of PXN (UniProt P49023), the log2 fold change was inactive: -0.025.

Take PSAP isoform 3 (UniProt P07602): the log2 fold change is inactive: -0.024.
